The subject of the assay is P388 leukemia ip, CD2F1 mice, survival T/C. Put plainly: NCI In Vivo Anticancer Drug Screen. Data for tumor model P388 Leukemia (intraperitoneal) in CD2F1 (CDF1) mice. Particulars: T/C endpoint: median survival time, higher T/C = longer survival.
The mark [1] stands for this setting: dose: 16.0 mg/kg/injection, schedule: Q04DX003 (ip), vehicle: other.
Where [2] appears, read: dose: 200.0 mg/kg/injection, schedule: Q04DX003 (ip), vehicle: saline with Tween-80.
Where [3] appears, read: dose: 50.0 mg/kg/injection, schedule: Q01DX005 (ip), vehicle: saline with Tween-80.
Where [4] appears, read: dose: 200.0 mg/kg/injection, schedule: Q01DX005 (ip), vehicle: saline with Tween-80.
Setting [5] is: dose: 60.0 mg/kg/injection, schedule: Q01DX005 (ip), vehicle: saline with Tween-80.
The mark [6] stands for this setting: dose: 120.0 mg/kg/injection, schedule: Q01DX005 (ip), vehicle: saline with Tween-80.
Where [7] appears, read: dose: 240.0 mg/kg/injection, schedule: Q01DX005 (ip), vehicle: saline with Tween-80.

The list is a part of this screen's results and no random one: it is rich in T/C values a quarter to a half above the control, in often repeated tests (any T/C) and in doses without a T/C. Further doses and runs are listed elsewhere. T/C is the treated group as % of the vehicle group. Some doses have a count of surviving animals in place of a T/C: the source files T/C as zero there, which appears to mark a toxic dose or a test without result, not a measured value. Some survivor counts are full or nearly so, which does not show that the dose was tolerated: survival well below the control is almost never listed, so the zero probably covers shortened survival too. Counts of survivors are from the toxicity check (mostly the fifth day) where no day follows; animals may have died later. Schedules are NCI's codes, read here as Q, the interval in days (D) or hours (H), X, the number of doses. Some entries were tested several times; the results are listed from low to high. Brackets with × stand for listed records that agree. For survival time, this PubChem deposit counts one and a half times the control or more as active, and values a quarter to a half above the control carry no call in these data; other NCI protocols may use other cut-offs. Some T/C values carry the count of animals alive at the toxicity check (mostly the fifth day); where none is given, no animal had died by that day.

Turning to `CCN(CC)CCCNc1nccc2c(C)c3[nH]c4ccncc4c3cc12`, the T/C (dose: 1.0 mg/kg/injection, schedule: Q04DX003 (ip), vehicle: other, evaluated on day 30) is recorded as 147, 153, 174 % of control; the T/C (dose: 1.0 mg/kg/injection, schedule: Q04DX003 (ip), vehicle: other, evaluated on day 35) was 150 % of control; the T/C (dose: 2.0 mg/kg/injection, schedule: Q04DX003 (ip), vehicle: other, evaluated on day 30) is 163, 165, 190 % of control; the T/C (dose: 2.0 mg/kg/injection, schedule: Q04DX003 (ip), vehicle: other, evaluated on day 35) was 154 % of control; the T/C (dose: 4.0 mg/kg/injection, schedule: Q04DX003 (ip), vehicle: other, evaluated on day 30) is 186 and 187 % of control; the T/C (dose: 4.0 mg/kg/injection, schedule: Q04DX003 (ip), vehicle: other, evaluated on day 35) was 150 % of control. Also, the T/C is, setting by setting: (dose: 8.0 mg/kg/injection, schedule: Q04DX003 (ip), vehicle: other, evaluated on day 30) 179 % of control; (dose: 8.0 mg/kg/injection, schedule: Q04DX003 (ip), vehicle: other, evaluated on day 35) 178 % of control; (dose: 8.0 mg/kg/injection, schedule: Q04DX003 (iv), vehicle: other) 146 % of control [5 of 6 alive]; under setting [1], 196 % of control. In addition, the survivor count is 6 of 6 (dose: 4.0 mg/kg/injection, schedule: Q04DX003 (ip), vehicle: other); 2 of 6 and 6 of 6 (dose: 8.0 mg/kg/injection, schedule: Q04DX003 (ip), vehicle: other); 0 of 6 and 3 of 6 under setting [1]; 0 of 6 (dose: 16.0 mg/kg/injection, schedule: Q04DX003 (iv), vehicle: other); 0 of 8 and 5 of 8 (dose: 25.0 mg/kg/injection, schedule: Q04DX002 (ip), vehicle: other); 2 of 8 (dose: 30.0 mg/kg/injection, schedule: Q04DX002 (ip), vehicle: other).

`CC1CN1CC(O)C(O)CN1CC1C` (centres undefined): the T/C is, setting by setting: (dose: 0.04 mg/kg/injection, schedule: Q04DX003 (ip), vehicle: saline) 136 % of control; (dose: 0.08 mg/kg/injection, schedule: Q04DX003 (ip), vehicle: saline) 140 % of control; (dose: 1.5 mg/kg/injection, schedule: Q04DX003 (ip), vehicle: saline) 136 % of control. In addition, the survivor count reads like this: (dose: 5.0 mg/kg/injection, schedule: Q01DX009 (ip), vehicle: saline with Tween-80) 6 of 6; (dose: 7.5 mg/kg/injection, schedule: Q04DX003 (ip), vehicle: saline) 6 of 6; (dose: 10.0 mg/kg/injection, schedule: Q01DX009 (ip), vehicle: saline) 6 of 6; (dose: 10.0 mg/kg/injection, schedule: Q04DX003 (ip), vehicle: saline) 6 of 6; (dose: 11.25 mg/kg/injection, schedule: Q04DX003 (ip), vehicle: saline) 6 of 6; (dose: 15.0 mg/kg/injection, schedule: Q04DX003 (ip), vehicle: saline) 3 of 6. Further, the survivor count by setting is: (dose: 20.0 mg/kg/injection, schedule: Q04DX003 (ip), vehicle: saline) 2 of 6 and 4 of 6; (dose: 100.0 mg/kg/injection, schedule: Q04DX003 (ip), vehicle: saline with Tween-80) 0 of 6 (2×); under setting [2], 0 of 6 (2×); (dose: 400.0 mg/kg/injection, schedule: Q04DX003 (ip), vehicle: saline with Tween-80) 0 of 6 (2×).

Consider `O=C(O)c1n[nH]c2ccccc2c1=O`, for which the survivor count (dose: 50.0 mg/kg/injection, schedule: Q01DX009 (ip), vehicle: other) was 3 of 6; the survivor count (dose: 100.0 mg/kg/injection, schedule: Q01DX009 (ip), vehicle: other) is 2 of 6; the survivor count (dose: 200.0 mg/kg/injection, schedule: Q01DX009 (ip), vehicle: other) is 1 of 6; the survivor count (dose: 400.0 mg/kg/injection, schedule: Q01DX009 (ip), vehicle: other) was 0 of 6.

With `N=C(N)c1ccc(OCCCOc2ccc(C(=N)N)cc2)cc1`, the survivor count is 0 of 5 (dose: 50.0 mg/kg/injection, schedule: Q01DX005 (ip), vehicle: saline); 0 of 5 (dose: 100.0 mg/kg/injection, schedule: Q01DX005 (ip), vehicle: saline); 0 of 5 (dose: 200.0 mg/kg/injection, schedule: Q01DX005 (ip), vehicle: saline).

With `O=[N+]([O-])CC(c1ccccc1)C(C[N+](=O)[O-])c1ccccc1` (centres undefined), the survivor count reads like this: (dose: 25.0 mg/kg/injection, schedule: Q01DX005 (ip), vehicle: saline with Tween-80) 5 of 5; under setting [3], 5 of 5; under setting [4], 5 of 5.

For the molecule `CCCN1C=C(C(=O)OCC)C(N)=C(C#N)/C1=C\C=C(/C#N)C(=O)OCC`, the survivor count runs as follows: (dose: 25.0 mg/kg/injection, schedule: Q01DX001 (ip), vehicle: Klucel (hydroxypropylcellulose) (HPC)) 6 of 6; (dose: 100.0 mg/kg/injection, schedule: Q01DX001 (ip), vehicle: Klucel (hydroxypropylcellulose) (HPC)) 6 of 6; (dose: 200.0 mg/kg/injection, schedule: Q01DX001 (ip), vehicle: Klucel (hydroxypropylcellulose) (HPC)) 6 of 6; (dose: 400.0 mg/kg/injection, schedule: Q01DX001 (ip), vehicle: Klucel (hydroxypropylcellulose) (HPC)) 5 of 6.

As to `C=Cn1cc[n+](CC(=O)OC2CCC3C4CCC5=CC(=O)CCC5(C)C4CCC23C)c1` (centres undefined), the survivor count is 2 of 6 (dose: 15.0 mg/kg/injection, schedule: Q01DX005 (ip), vehicle: Klucel (hydroxypropylcellulose) (HPC)); 0 of 6 (dose: 60.0 mg/kg/injection, schedule: Q01DX005 (ip), vehicle: Klucel (hydroxypropylcellulose) (HPC)); 0 of 6 (dose: 120.0 mg/kg/injection, schedule: Q01DX005 (ip), vehicle: Klucel (hydroxypropylcellulose) (HPC)); 0 of 6 (dose: 240.0 mg/kg/injection, schedule: Q01DX005 (ip), vehicle: Klucel (hydroxypropylcellulose) (HPC)).

On to `COc1ccc(NC(=O)C#N)cc1`, for which the survivor count is given as 0 of 6 (dose: 30.0 mg/kg/injection, schedule: Q01DX005 (ip), vehicle: saline with Tween-80); 0 of 6 under setting [5]; 0 of 6 under setting [6]; 0 of 6 under setting [7].

With `C[N+](C)(C)C.[CH-]1CCCCC1.[CH-]1CCCCC1.[CH-]1CCCCC1.[Cl-].[Cl-].[Sn+4]`, the survivor count is, setting by setting: (dose: 12.5 mg/kg/injection, schedule: Q01DX005 (ip), vehicle: saline with Tween-80) 1 of 6; under setting [3], 0 of 6; (dose: 100.0 mg/kg/injection, schedule: Q01DX005 (ip), vehicle: saline with Tween-80) 0 of 6; under setting [4], 0 of 6.

With `O=[N+]([O-])c1cc2c(cc1S(=O)(=O)O)C1C(C3C2C2(Cl)C(Cl)=C(Cl)C3(Cl)C2(Cl)Cl)C2(Cl)C(Cl)=C(Cl)C1(Cl)C2(Cl)Cl` (centres undefined), under “dose: 200.0 mg/kg/injection, schedule: Q01DX009 (ip), vehicle: saline”, the survivor count is reported as 3 of 6.

With `CCN(CC)CCNc1ccc(CO)c2oc3ccc(O)cc3c(=O)c12`, the survivor count (dose: 400.0 mg/kg/injection, schedule: Q01DX005 (ip), vehicle: saline with Tween-80) is given as 6 of 6.

For `O=NN1CCN(N=O)CC1`, the survivor count by setting is: (dose: 100.0 mg/kg/injection, schedule: Q01DX009 (ip), vehicle: saline with Tween-80) 0 of 6; under setting [2], 0 of 6.

On to `CCOC(=O)c1sc(=S)n(CC)c1C`, for which the survivor count under setting [4] is recorded as 0 of 6.

As to `O=CNC(Cc1ccc(N(CCCl)CCCl)cc1)C(=O)O` (centres undefined), the T/C (dose: 4.4 mg/kg/injection, schedule: Q04DX003 (ip), vehicle: saline) was 140 % of control.

Turning to `CSc1c(N(C)C)c(=O)c1=S`, the survivor count is, setting by setting: under setting [5], 3 of 6; under setting [6], 3 of 6; under setting [7], 0 of 6.
